PubChem BioAssay AID1159578, Peter MacCallum Cancer Centre – 2015
Shown is an unselected part of about 18,000 reagents tested. About 1,030 of them (5.7%) count as active. 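Inactive calls also include pools with fewer than 3300 nuclei, whose migration was not assessed.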 Raw values vary from plate to plate and are shown uncorrected. Entries without a mark were called inactive. Not all columns of the deposit are shown. Reagent sequences are not shown.

Aim: 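Knock-downs that alter how fast lymphatic endothelial cells migrate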 (primary screen)
Cell system: human lymphatic endothelial cells
Knock-down reagent: siRNA pool against human genes, 40 nM
Timing: 48 h after transfection
Measured: 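Cells stained with dye and imaged after a scratch; covered wound area and nuclei counted, duplicates averaged, migration set against mock wells and turned into a robust z-score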
Reading the numbers: migration robust z-score: higher = faster migration into the scratch; nuclei per well: higher = more cells in the well
Call rule: 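Migration changed when robust z exceeds 2 or falls below -2 and mean nuclei number is at least 3300; otherwise not called changed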
Meaning of the calls: active = migration changed; inactive = no migration change, or too few cells

For MCAM [SID255350897], what does the deposit list?
migration robust z-score: -0.34; migration class with cell-count check: migration z between -2 and 2; enough cells; nuclei per well, duplicate mean: 6440

Which result is listed for AHRR [SID255359418]?
migration robust z-score: 1.24; migration class with cell-count check: migration z between -2 and 2; enough cells; nuclei per well, duplicate mean: 5744

How did the screen score SMIM15 [SID255366076]?
migration robust z-score: 0.85; migration class with cell-count check: migration z between -2 and 2; enough cells; nuclei per well, duplicate mean: 6806

For GBP4 [SID255362307], how do the results read?
migration robust z-score: 0.22; migration class with cell-count check: migration z between -2 and 2; enough cells; nuclei per well, duplicate mean: 4140

What did the screen give for IGHMBP2 [SID255350435]?
migration robust z-score: 0.16; migration class with cell-count check: migration z between -2 and 2; enough cells; nuclei per well, duplicate mean: 4357

What is on record for LGALS9C [SID255366156]?
migration robust z-score: 0.38; migration class with cell-count check: migration z between -2 and 2; enough cells; nuclei per well, duplicate mean: 5972

What did the screen give for GPR153 [SID255365440]?
migration robust z-score: -1.06; migration class with cell-count check: migration z between -2 and 2; enough cells; nuclei per well, duplicate mean: 4918

For SERPINB7 [SID255353755], how do the results read?
migration robust z-score: 1.54; migration class with cell-count check: migration z between -2 and 2; enough cells; nuclei per well, duplicate mean: 6261

Records above whose gene name begins with G or g:
GBP4 [SID255362307] | migration robust z-score = 0.22; migration class with cell-count check = migration z between -2 and 2; enough cells; nuclei per well, duplicate mean = 4140
GPR153 [SID255365440] | migration robust z-score = -1.06; migration class with cell-count check = migration z between -2 and 2; enough cells; nuclei per well, duplicate mean = 4918

Continued.
Which result is listed for SGMS2 [SID255363849]?
migration robust z-score: 0.91; migration class with cell-count check: migration z between -2 and 2; enough cells; nuclei per well, duplicate mean: 5338

How did the screen score KIRREL2 [SID255361171]?
migration robust z-score: -0.93; migration class with cell-count check: migration z between -2 and 2; enough cells; nuclei per well, duplicate mean: 5319

With NECAP2 [SID255358794], what does the deposit list?
migration robust z-score: 0.9; migration class with cell-count check: migration z between -2 and 2; enough cells; nuclei per well, duplicate mean: 4287

For SLC35A3 [SID255356247], what does the deposit list?
migration robust z-score: -1.12; migration class with cell-count check: migration z between -2 and 2; enough cells; nuclei per well, duplicate mean: 4523

For FBXW9 [SID255361277], what does the deposit list?
migration robust z-score: -0.68; migration class with cell-count check: migration z between -2 and 2; enough cells; nuclei per well, duplicate mean: 3814

Which result is listed for PGLYRP4 [SID255359274]?
migration robust z-score: -2.88 (active); migration class with cell-count check: migration z below -2; enough cells; nuclei per well, duplicate mean: 7475

With OR8G2P [SID255356785], what does the deposit list?
migration robust z-score: -0.01; migration class with cell-count check: migration z between -2 and 2; enough cells; nuclei per well, duplicate mean: 5998

Which result is listed for CD59 [SID255348795]?
migration robust z-score: 0.09; migration class with cell-count check: migration z between -2 and 2; enough cells; nuclei per well, duplicate mean: 5340

With FLNA [SID255349719], what was measured?
migration robust z-score: -0.29; migration class with cell-count check: migration z between -2 and 2; enough cells; nuclei per well, duplicate mean: 5232

What did the screen give for NATD1 [SID255364520]?
migration robust z-score: -0.4; migration class with cell-count check: migration z between -2 and 2; enough cells; nuclei per well, duplicate mean: 5976

Which result is listed for UBA3 [SID255353984]?
migration robust z-score: 0.57; migration class with cell-count check: migration z between -2 and 2; enough cells; nuclei per well, duplicate mean: 5098

What is on record for LDHC [SID255350740]?
migration robust z-score: 0.65; migration class with cell-count check: migration z between -2 and 2; enough cells; nuclei per well, duplicate mean: 5964

For MYL9 [SID255355046], how do the results read?
migration robust z-score: -0.24; migration class with cell-count check: migration z between -2 and 2; enough cells; nuclei per well, duplicate mean: 5120
